The values that follow come from paper PMC5414174, “DNA replication licensing factor Cdc6 and Plk4 kinase antagonistically regulate centrosome duplication via Sas-6” (Nature Communications, 2017).

In assay [1] the target is T1, HA-tagged Sas-6 (in vitro transcribed and translated) (human) (UniProt Q6UVJ0).
T1 sequence: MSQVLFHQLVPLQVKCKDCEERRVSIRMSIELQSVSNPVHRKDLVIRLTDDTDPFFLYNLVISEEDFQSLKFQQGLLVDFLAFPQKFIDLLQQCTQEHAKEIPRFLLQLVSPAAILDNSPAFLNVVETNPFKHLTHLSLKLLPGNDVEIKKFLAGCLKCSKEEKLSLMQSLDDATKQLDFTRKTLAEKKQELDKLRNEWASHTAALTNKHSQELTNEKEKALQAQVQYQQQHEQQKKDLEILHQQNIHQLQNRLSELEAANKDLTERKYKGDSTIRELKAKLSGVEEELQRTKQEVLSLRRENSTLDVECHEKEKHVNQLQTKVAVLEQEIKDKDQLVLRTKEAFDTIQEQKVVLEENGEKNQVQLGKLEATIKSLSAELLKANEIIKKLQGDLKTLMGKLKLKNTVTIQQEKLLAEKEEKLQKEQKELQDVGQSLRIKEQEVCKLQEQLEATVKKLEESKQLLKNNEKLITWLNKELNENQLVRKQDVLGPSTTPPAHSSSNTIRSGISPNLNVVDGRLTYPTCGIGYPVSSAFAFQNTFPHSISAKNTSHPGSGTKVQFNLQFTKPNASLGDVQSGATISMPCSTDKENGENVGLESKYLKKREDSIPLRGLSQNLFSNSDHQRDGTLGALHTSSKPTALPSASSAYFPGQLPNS
Description: co-IP; same experiment as a9: purified His-Cdc6 2A added to in vitro translated HA-Sas-6 and HA-STIL with GST-Plk4; read-out is STIL bound to immunoprecipitated Sas-6; only the binder purified.

Assay [2] concerns the target T2, Plk4 (pull-down assay of Supplementary Fig. 4b) (human) (UniProt O00444).
T2 sequence: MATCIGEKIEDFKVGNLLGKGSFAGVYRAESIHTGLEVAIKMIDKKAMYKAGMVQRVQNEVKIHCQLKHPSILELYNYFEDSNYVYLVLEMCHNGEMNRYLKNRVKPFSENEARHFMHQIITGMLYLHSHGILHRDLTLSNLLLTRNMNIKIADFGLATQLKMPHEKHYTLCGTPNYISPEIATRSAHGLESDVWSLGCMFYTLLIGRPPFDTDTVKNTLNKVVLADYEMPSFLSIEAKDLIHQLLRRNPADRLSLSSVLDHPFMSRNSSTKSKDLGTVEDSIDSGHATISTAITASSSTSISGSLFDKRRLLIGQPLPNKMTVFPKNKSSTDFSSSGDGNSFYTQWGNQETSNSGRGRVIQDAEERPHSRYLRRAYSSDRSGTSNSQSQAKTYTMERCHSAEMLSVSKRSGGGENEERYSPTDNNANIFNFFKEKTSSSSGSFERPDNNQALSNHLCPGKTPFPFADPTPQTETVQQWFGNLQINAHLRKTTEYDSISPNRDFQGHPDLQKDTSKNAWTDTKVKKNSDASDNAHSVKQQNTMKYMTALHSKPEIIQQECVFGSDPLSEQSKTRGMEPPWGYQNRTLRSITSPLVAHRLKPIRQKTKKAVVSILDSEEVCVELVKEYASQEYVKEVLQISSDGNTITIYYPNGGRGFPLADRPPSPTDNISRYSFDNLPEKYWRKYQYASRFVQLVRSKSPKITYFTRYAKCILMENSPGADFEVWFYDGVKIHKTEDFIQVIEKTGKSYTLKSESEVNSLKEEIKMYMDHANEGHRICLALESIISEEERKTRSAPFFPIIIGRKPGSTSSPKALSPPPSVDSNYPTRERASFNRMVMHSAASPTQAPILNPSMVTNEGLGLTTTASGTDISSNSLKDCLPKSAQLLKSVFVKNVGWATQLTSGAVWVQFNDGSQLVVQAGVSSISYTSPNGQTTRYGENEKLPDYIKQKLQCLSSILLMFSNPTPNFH
Description: pull-down; pull-down assay of Supplementary Fig. 4b; format not given.

In assay [3] the target is T3, GFP-tagged Cdc6 2A mutant (human) (UniProt Q99741).
T3 sequence: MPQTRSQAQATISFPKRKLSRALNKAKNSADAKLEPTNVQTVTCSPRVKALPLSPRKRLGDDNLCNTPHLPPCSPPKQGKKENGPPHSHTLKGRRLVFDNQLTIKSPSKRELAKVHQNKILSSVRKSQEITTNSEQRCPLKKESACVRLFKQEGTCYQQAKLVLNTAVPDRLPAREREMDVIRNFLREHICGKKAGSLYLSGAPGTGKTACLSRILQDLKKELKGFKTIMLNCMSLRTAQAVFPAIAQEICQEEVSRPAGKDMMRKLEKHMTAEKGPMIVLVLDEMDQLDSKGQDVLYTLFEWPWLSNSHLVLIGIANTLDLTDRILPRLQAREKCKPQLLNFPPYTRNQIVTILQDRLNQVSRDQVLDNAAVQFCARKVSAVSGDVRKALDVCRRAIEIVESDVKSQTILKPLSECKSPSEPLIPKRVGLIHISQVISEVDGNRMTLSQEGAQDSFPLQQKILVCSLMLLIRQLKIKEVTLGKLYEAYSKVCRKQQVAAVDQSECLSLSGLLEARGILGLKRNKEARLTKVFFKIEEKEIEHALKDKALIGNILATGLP
Briefly: co-IP; co-transfected HEK293 cells, total cell extract, IP with GFP antibody on protein A Sepharose, 20 mM Tris, 125 mM NaCl, 0.5% NP-40, pH 7.5, 2 h at 4 °C; western blot with Myc and GFP antibodies; in Fig. 4d cells released into S phase. In general terms: A western blot detects proteins with antibodies after separation by electrophoresis.

Assay [4] addresses T4, GFP-tagged Cdc6 WT (human) (UniProt Q99741).
T4 sequence: T3 sequence with A30S, A527T
Described as above.

Assay [5] has as its target T5, His-tagged Cdc6 (in vitro transcribed and translated) (human) (UniProt Q99741).
T5 sequence: T3 sequence with A30S, A527T
Description: co-IP; in vitro: in vitro translated His-Cdc6 (or mutant) and His-Sas-6 incubated with purified GST or GST-Plk4 in kinase reaction buffer (200 μM ATP, pH 7.5) 30 min at 30 °C, then IP with Cdc6 antibody in immunoprecipitation buffer 2 h at 4 °C; blots with Cdc6 and Sas-6 antibodies.

Assay [6] addresses T6, His-tagged Cdc6 2A mutant (in vitro transcribed and translated) (human) (UniProt Q99741).
T6 sequence: T3 sequence
The assay is described as above.

Changes are numbered by the printed parent chain. These are yes or no findings as the source states them, for the method shown. In cells and extracts the contact can be indirect. Some entries that bind do so weakly or less than the wild type. For part of these data: Where a sequence is shown, tags or fusion partners need not be part of it.

B1: His-tagged Cdc6 2A mutant (purified) (protein, UniProt Q99741 1-560)
chain: T3 sequence
Take B1: the binding result in assay [1] is reported as “binds”.

B2: Cdc6 (pull-down assay of Supplementary Fig. 4b) (protein, UniProt Q99741 1-560)
chain: T3 sequence with A30S, A527T
For the molecule B2, the binding result in assay [2] is “binds”.

B3: Myc-tagged Sas-6 (protein, UniProt Q6UVJ0 1-657)
chain: T1 sequence
For B3, the binding result in assay [3] and in assay [4] was “binds” each time.

B4: His-tagged Sas-6 (in vitro transcribed and translated) (protein, UniProt Q6UVJ0 1-657)
chain: T1 sequence
Turning to B4, the binding entry in assay [5] and in assay [6] was “binds” in each case.
